# Measurements from patent US7803764B2, “Amphipathic glycopeptides” (The Arizona Board of Regents on Behalf of the University of …, priority 2004, dated 2010).
# Some of these results come from one statement about several compounds together.
# Assay: in vivo antinociception after i.c.v. administration
# Details: mice
smiles,measurement,value
"CC(C)C[C@H](NC(=O)CNC(=O)[C@H](CC(C)C)NC(=O)[C@H](Cc1ccccc1)NC(=O)CNC(=O)[C@H](NC(=O)[C@@H](N)Cc1ccc(O)cc1)[C@H](C)O)C(=O)N[C@@H](CC(C)C)C(=O)N[C@@H](CCCCN)C(=O)N[C@@H](CO[C@@H]1O[C@H](CO)[C@@H](O)[C@H](O)[C@H]1O)C(=O)N[C@@H](Cc1ccccc1)C(=O)N[C@@H](C)C(=O)N[C@@H](CCC(=O)O)C(=O)N[C@@H](CO[C@@H]1O[C@H](CO)[C@@H](O)[C@H](O)[C@H]1O)C(=O)N[C@@H](Cc1c[nH]c2ccccc12)C(=O)N[C@@H](CO[C@@H]1O[C@H](CO)[C@@H](O)[C@H](O)[C@H]1O)C(=O)N[C@@H](CC(N)=O)C(=O)N[C@@H](Cc1ccccc1)C(N)=O (relative stereo) [Glycopeptide 6, YtGFLGLLKS*FAES*WS*NF]",A50 value after i.c.v. administration,below 100 pmoles per mouse
"CC(C)C[C@H](NC(=O)[C@H](Cc1ccccc1)NC(=O)CNC(=O)[C@H](NC(=O)[C@@H](N)Cc1ccc(O)cc1)[C@H](C)O)C(=O)NCC(=O)N[C@@H](CCCCN)C(=O)N[C@@H](CO[C@@H]1O[C@H](CO)[C@@H](O)[C@H](O)[C@H]1O)C(=O)N[C@@H](Cc1ccccc1)C(=O)N[C@@H](C)C(=O)N[C@@H](CCC(=O)O)C(=O)N[C@@H](CC(C)C)C(=O)N[C@@H](Cc1c[nH]c2ccccc12)C(=O)N[C@@H](CO[C@@H]1O[C@H](CO)[C@@H](O)[C@H](O)[C@H]1O)C(=O)N[C@@H](CC(N)=O)C(=O)N[C@@H](Cc1ccccc1)C(=O)N[C@@H](CC(C)C)C(=O)N[C@@H](CO[C@@H]1O[C@H](CO)[C@@H](O)[C@H](O)[C@H]1O)C(N)=O (relative stereo) [Glycopeptide 7, YtGFLGKS*FAELWS*NFLS*]",A50 value after i.c.v. administration,below 100 pmoles per mouse
